Data as given in the supplement of paper PMC10849652.
The list shows a part of the results.

Chains of the proteins cited; added tags and fusions are not shown. Lines headed by an entry give the natural chain unless they say otherwise; changes in a name come on top.
UniProt Q9H0K6: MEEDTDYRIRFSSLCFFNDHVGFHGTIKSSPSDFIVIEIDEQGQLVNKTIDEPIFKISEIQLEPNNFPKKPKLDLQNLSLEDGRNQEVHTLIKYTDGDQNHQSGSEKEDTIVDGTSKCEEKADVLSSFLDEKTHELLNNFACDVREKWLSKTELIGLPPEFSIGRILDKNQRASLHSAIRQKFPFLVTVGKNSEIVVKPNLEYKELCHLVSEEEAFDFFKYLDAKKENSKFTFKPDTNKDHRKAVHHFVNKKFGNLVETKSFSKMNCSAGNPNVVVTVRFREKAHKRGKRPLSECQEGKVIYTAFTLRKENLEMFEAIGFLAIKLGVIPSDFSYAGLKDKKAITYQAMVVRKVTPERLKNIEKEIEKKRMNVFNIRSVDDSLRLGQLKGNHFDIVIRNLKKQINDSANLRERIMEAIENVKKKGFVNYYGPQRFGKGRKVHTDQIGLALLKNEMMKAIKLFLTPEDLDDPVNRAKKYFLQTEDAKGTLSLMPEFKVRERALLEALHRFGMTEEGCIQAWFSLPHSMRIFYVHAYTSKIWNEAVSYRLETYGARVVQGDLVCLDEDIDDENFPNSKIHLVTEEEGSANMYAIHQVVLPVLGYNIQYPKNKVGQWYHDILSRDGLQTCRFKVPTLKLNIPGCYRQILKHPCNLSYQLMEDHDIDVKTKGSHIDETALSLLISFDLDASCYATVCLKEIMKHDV
UniProt Q9BT73: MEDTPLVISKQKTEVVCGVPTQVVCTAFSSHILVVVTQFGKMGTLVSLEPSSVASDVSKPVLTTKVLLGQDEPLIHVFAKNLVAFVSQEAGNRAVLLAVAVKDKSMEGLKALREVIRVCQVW
UniProt Q9NXS2: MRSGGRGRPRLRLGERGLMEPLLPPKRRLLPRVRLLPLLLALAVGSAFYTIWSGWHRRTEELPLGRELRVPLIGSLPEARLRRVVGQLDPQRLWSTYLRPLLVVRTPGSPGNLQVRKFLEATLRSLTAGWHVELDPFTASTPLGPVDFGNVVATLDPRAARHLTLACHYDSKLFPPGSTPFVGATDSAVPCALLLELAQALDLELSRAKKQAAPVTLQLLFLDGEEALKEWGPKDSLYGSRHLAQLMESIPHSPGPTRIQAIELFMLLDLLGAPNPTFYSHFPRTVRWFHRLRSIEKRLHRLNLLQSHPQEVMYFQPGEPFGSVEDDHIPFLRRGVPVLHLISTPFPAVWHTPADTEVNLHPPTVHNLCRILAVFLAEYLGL
UniProt P49720: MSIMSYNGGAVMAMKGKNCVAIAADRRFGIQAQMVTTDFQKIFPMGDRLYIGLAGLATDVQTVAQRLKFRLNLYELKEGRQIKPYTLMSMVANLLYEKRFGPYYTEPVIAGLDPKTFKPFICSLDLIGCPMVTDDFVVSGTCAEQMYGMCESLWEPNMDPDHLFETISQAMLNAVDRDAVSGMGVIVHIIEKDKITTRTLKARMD
UniProt P78330: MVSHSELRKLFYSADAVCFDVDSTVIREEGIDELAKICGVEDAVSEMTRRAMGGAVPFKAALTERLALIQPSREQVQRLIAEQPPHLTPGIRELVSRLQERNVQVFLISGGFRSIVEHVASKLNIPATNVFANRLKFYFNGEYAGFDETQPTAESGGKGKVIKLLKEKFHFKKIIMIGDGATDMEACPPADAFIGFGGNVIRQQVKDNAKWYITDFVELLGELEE
UniProt Q9Y6I8: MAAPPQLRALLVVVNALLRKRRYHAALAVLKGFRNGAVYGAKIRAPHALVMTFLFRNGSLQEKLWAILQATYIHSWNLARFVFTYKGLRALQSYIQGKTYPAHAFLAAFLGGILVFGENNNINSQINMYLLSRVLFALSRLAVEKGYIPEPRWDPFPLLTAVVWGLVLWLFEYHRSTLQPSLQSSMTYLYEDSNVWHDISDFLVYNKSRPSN
UniProt P17706: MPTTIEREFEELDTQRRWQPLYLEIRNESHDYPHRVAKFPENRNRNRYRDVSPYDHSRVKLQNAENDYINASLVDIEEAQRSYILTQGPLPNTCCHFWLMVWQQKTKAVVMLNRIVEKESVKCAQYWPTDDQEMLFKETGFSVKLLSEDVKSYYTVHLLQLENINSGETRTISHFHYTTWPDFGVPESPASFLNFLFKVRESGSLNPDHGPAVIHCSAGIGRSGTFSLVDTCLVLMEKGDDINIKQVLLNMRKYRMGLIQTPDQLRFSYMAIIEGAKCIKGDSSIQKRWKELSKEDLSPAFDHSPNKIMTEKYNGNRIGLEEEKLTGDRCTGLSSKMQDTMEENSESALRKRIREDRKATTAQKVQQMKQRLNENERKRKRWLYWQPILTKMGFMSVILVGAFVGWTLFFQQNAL
UniProt Q9H7Z7: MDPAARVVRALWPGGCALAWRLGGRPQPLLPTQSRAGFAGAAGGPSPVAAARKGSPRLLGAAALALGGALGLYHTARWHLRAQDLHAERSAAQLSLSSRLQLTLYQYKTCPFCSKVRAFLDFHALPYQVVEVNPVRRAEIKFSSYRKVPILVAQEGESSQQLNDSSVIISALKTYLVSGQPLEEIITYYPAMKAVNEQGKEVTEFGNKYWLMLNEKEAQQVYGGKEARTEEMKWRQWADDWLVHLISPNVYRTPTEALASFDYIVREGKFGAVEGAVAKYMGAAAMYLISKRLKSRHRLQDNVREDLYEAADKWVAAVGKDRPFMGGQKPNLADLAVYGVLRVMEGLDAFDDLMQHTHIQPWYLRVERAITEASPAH
UniProt Q9NR77: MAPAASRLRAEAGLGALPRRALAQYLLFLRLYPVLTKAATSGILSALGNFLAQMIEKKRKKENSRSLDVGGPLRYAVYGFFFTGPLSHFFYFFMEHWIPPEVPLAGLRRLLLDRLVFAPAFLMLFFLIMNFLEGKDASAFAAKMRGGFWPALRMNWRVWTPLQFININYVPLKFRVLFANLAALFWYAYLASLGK
UniProt Q3MIT2: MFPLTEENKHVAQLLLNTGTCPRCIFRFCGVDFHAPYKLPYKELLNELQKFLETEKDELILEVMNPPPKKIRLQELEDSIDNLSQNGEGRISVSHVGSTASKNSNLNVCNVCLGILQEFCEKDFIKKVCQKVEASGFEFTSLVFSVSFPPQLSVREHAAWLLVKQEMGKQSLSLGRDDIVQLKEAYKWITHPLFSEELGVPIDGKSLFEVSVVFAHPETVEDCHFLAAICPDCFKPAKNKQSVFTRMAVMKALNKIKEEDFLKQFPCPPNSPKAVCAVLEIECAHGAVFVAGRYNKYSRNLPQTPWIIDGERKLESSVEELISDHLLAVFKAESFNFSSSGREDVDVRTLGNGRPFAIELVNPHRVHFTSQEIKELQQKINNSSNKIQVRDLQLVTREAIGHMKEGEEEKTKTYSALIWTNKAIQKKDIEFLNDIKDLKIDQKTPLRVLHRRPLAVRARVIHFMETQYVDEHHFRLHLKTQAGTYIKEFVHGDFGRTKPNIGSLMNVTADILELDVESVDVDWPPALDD
UniProt P60900, whole entry, looked up: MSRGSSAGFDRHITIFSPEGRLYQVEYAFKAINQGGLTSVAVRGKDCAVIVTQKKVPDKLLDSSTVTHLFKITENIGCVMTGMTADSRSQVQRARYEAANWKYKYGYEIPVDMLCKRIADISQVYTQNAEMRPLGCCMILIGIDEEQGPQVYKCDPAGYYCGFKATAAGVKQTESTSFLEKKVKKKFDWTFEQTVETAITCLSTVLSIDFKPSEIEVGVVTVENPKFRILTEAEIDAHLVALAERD
UniProt Q92530: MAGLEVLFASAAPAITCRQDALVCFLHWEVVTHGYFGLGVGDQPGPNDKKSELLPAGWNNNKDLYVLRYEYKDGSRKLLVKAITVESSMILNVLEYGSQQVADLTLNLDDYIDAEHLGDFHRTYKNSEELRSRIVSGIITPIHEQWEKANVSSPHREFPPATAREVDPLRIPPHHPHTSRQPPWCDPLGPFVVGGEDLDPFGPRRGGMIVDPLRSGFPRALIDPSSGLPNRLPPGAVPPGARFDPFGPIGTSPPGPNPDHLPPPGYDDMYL
UniProt Q9H939: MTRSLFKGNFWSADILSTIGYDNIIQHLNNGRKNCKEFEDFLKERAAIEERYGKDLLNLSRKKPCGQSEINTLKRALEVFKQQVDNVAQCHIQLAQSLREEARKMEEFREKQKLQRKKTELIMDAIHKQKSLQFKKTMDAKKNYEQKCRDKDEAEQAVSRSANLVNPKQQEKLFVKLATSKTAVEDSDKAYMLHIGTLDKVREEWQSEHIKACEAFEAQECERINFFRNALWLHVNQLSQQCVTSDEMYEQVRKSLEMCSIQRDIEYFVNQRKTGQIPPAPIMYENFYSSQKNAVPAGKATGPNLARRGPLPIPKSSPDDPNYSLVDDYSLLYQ
UniProt O14818: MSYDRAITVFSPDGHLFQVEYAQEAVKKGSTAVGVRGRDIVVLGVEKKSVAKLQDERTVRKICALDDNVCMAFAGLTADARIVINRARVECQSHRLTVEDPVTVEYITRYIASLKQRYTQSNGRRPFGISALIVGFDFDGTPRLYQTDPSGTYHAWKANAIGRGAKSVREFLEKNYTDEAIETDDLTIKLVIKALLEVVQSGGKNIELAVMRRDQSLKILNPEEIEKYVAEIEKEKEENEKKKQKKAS
UniProt P49721: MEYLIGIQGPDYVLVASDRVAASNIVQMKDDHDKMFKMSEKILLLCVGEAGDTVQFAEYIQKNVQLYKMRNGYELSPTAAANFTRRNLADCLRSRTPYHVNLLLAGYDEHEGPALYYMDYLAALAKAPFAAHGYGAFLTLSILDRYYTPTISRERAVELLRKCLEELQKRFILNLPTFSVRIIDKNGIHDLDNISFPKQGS
UniProt P23219, whole entry, looked up: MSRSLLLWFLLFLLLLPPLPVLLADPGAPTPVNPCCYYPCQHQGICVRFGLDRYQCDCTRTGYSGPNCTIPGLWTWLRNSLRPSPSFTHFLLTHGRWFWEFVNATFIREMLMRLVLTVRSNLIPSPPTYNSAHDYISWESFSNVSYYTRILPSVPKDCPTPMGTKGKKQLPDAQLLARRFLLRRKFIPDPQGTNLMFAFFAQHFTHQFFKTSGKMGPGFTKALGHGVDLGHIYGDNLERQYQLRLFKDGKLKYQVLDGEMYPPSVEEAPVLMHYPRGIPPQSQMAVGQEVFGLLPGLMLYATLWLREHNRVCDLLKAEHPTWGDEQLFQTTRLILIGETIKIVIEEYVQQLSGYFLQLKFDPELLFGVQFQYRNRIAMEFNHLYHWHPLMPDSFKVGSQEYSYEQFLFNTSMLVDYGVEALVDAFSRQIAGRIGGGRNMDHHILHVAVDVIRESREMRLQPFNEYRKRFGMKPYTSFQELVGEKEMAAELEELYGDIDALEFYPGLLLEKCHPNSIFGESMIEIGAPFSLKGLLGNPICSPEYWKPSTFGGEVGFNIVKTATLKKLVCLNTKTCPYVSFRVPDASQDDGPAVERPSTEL
UniProt P08575: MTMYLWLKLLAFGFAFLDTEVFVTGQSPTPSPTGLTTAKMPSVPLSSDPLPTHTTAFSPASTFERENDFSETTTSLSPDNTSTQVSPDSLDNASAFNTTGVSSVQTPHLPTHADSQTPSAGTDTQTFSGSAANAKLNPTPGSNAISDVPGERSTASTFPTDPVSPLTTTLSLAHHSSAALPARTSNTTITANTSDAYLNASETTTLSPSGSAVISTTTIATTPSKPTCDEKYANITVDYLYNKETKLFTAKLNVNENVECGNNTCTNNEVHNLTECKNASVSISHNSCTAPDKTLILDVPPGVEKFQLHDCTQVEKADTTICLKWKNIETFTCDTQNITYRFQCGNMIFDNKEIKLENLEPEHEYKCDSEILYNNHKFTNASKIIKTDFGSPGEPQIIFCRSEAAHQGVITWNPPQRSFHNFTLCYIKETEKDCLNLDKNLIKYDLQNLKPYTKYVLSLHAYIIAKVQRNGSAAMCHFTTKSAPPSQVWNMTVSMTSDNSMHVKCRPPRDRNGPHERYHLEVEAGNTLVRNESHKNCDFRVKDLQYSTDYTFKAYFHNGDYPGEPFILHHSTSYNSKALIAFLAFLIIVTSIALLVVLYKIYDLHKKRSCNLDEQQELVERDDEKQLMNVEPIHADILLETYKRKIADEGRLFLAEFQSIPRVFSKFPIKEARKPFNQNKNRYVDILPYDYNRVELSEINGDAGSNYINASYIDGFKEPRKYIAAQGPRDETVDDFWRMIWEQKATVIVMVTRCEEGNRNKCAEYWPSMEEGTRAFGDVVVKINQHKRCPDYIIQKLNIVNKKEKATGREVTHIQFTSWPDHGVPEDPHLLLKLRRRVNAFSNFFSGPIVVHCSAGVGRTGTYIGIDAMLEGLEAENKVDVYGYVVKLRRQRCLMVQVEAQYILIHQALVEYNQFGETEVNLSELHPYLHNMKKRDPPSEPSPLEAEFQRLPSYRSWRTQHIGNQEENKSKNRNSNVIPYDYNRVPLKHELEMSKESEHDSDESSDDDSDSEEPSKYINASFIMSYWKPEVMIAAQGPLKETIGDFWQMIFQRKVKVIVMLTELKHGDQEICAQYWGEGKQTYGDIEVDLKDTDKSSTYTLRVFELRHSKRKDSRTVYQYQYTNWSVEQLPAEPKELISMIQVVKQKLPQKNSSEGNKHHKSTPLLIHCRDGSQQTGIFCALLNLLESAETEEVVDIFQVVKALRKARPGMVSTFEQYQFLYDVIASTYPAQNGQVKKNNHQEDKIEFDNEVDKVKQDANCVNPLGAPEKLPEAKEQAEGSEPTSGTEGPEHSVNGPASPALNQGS

Assays:
Assay in all cases: log2 fold change, soluble protein after heating vs DMSO (PISA); higher = thermal stabilisation; K562 cells, 10 uM, 30 min; active = over 0.2 and 3.5 SD of the protein, either way, in both replicates (recomputed)
saracatinib = compound: CN1CCN(CCOc2cc(OC3CCOCC3)c3c(Nc4c(Cl)ccc5c4OCO5)ncnc3c2)CC1 [saracatinib]
Summary of the method: (§1)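 Aliquots of K562 cells (2×10^6 cells/mL) treated with 10 μM compound for 30 min were heated for 3 min over 48°C-58°C. After pooling and extraction in PBS with 0.5% NP-40 at 4°C, soluble protein from a 21,000xg, 90 min spin was quantified by TMTpro 16plex LC-MS/MS with channel sums equalised. Thermal stability is expressed against control samples, from duplicates, as a log2 fold change.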

sotrastaurin = compound: CN1CCN(c2nc(C3=C(c4c[nH]c5ccccc45)C(=O)NC3=O)c3ccccc3n2)CC1 [sotrastaurin]
Summary of the method: as §1

alvocidib = compound: CN1CC[C@H](c2c(O)cc(O)c3c(=O)cc(-c4ccccc4Cl)oc23)[C@H](O)C1 [alvocidib]
Summary of the method: as §1

Tubastatin A = compound: CN1CCc2c(c3ccccc3n2Cc2ccc(C(=O)NO)cc2)C1 [Tubastatin A]
Summary of the method: as §1

[1] = compound: CNC(=O)C1=CC=CC=C1NC2=NC(=NC=C2Cl)NC3=C(C=C(C=C3)N4CCOCC4)OC
Summary of the method: as §1

defactinib = compound: CNC(=O)c1ccc(Nc2ncc(C(F)(F)F)c(NCc3nccnc3N(C)S(C)(=O)=O)n2)cc1 [defactinib]
Summary of the method: as §1

rucaparib = compound: CNCc1ccc(-c2[nH]c3cc(F)cc4c3c2CCNC4=O)cc1 [rucaparib]
Summary of the method: as §1

[2] = compound: CNc1nc(-c2ccc3c(N)n[nH]c3c2)cc(N2C[C@@H](C(=O)NC3CCCCC3)CC[C@H]2C)n1
Summary of the method: as §1

encorafenib = compound: COC(=O)N[C@@H](C)CNc1nccc(-c2cn(C(C)C)nc2-c2cc(Cl)cc(NS(C)(=O)=O)c2F)n1 [encorafenib]
Summary of the method: as §1

[3] = compound: COC(=O)[C@H](CCSC)NC(=O)C1=C(C=C(C=C1)NC[C@H](CS)N)C2=CC=CC=C2
Summary of the method: as §1

Measured: log2 fold change

PSMA2 (UniProt P25787)
inactive: saracatinib -0.004 | sotrastaurin -0.014 | alvocidib 0.027 | Tubastatin A -0.004 | [1] -0.033 | defactinib 0.022 | rucaparib 0.018 | [2] 0.028 | encorafenib 0.001 | [3] 0.001

PUS7L (UniProt Q9H0K6)
inactive: saracatinib -0.012 | sotrastaurin -0.016 | alvocidib -0.028 | Tubastatin A 0.034 | [1] -0.033 | defactinib -0.038 | rucaparib -0.001 | [2] -0.049 | encorafenib 0.045 | [3] 0.01

PSMG3 (UniProt Q9BT73)
inactive: saracatinib -0.068 | sotrastaurin 0.042 | alvocidib -0.037 | Tubastatin A 0.004 | [1] 0.006 | defactinib -0.067 | rucaparib 0.056 | [2] -0.115 | encorafenib 0 | [3] 0.077

PTCD3 (UniProt Q96EY7)
inactive: saracatinib -0.029 | sotrastaurin -0.095 | alvocidib -0.035 | Tubastatin A 0.034 | [1] 0.036 | defactinib 0.038 | rucaparib 0.076 | [2] 0.127 | encorafenib 0.058 | [3] -0.047

PTDSS2 (UniProt Q9BVG9)
inactive: saracatinib 0.097 | sotrastaurin 0.054 | alvocidib -0.021 | Tubastatin A -0.109 | [1] 0.082 | defactinib -0.078 | rucaparib -0.006 | [2] -0.021 | encorafenib -0.02 | [3] -0.001

PXN (UniProt P49023)
inactive: saracatinib 0.055 | sotrastaurin -0.065 | alvocidib 0.002 | Tubastatin A -0.011 | [1] -0.025 | defactinib 0.009 | rucaparib -0.022 | [2] -0.085 | encorafenib -0.015 | [3] 0.038

QTRT1 (UniProt Q9BXR0)
inactive: saracatinib 0.026 | sotrastaurin 0.005 | alvocidib -0.081 | Tubastatin A 0 | [1] -0.03 | defactinib 0.003 | rucaparib 0.006 | [2] -0.059 | encorafenib -0.029 | [3] 0.009

QPCTL (UniProt Q9NXS2)
inactive: saracatinib -0.059 | sotrastaurin 0.039 | alvocidib 0.025 | Tubastatin A 0.116 | [1] 0.062 | defactinib -0.019 | rucaparib 0.135 | [2] -0.007 | encorafenib 0.008 | [3] 0.007

PSMB3 (UniProt P49720)
inactive: saracatinib 0.031 | sotrastaurin 0 | alvocidib 0.066 | Tubastatin A -0.116 | [1] 0.106 | defactinib 0.073 | rucaparib 0.001 | [2] 0.001 | encorafenib 0.029 | [3] 0.022

PSPH (UniProt P78330)
inactive: saracatinib -0.02 | sotrastaurin 0.053 | alvocidib 0.014 | Tubastatin A 0.001 | [1] -0.027 | defactinib -0.036 | rucaparib 0.015 | [2] -0.021 | encorafenib -0.022 | [3] -0.021

PXMP4 (UniProt Q9Y6I8)
inactive: saracatinib 0.086 | sotrastaurin -0.003 | alvocidib 0.022 | Tubastatin A -0.058 | [1] -0.029 | defactinib -0.056 | rucaparib 0.018 | [2] -0.023 | encorafenib -0.037 | [3] -0.032

PRTFDC1 (UniProt Q9NRG1)
inactive: saracatinib 0.031 | sotrastaurin 0.055 | alvocidib 0.03 | Tubastatin A -0.024 | [1] -0.022 | defactinib 0.017 | rucaparib -0.04 | [2] -0.039 | encorafenib -0.025 | [3] 0.035

PYCR3 (UniProt Q53H96)
inactive: saracatinib 0.047 | sotrastaurin 0.017 | alvocidib -0.005 | Tubastatin A -0.029 | [1] -0.002 | defactinib -0.009 | rucaparib -0.021 | [2] 0.001 | encorafenib -0.03 | [3] 0.007

PTPN2 (UniProt P17706)
inactive: saracatinib -0.001 | sotrastaurin -0.022 | alvocidib -0.088 | Tubastatin A -0.054 | [1] 0.02 | defactinib -0.139 | rucaparib 0.017 | [2] 0.052 | encorafenib -0.012 | [3] -0.056

PYURF (UniProt Q96I23)
inactive: saracatinib 0.093 | sotrastaurin -0.07 | alvocidib 0.112 | Tubastatin A -0.026 | [1] 0.032 | defactinib 0.027 | rucaparib 0.015 | [2] -0.126 | encorafenib -0.056 | [3] 0.029

PTK7 isoform 6 (UniProt Q13308)
inactive: saracatinib 0.086 | sotrastaurin -0.094 | alvocidib -0.033 | Tubastatin A 0.008 | [1] -0.022 | defactinib -0.138 | rucaparib 0.061 | [2] 0.023 | encorafenib 0.047 | [3] -0.044

PSMD4 (UniProt P55036)
inactive: saracatinib -0.041 | sotrastaurin -0.002 | alvocidib 0.035 | Tubastatin A -0.021 | [1] -0.013 | defactinib 0.053 | rucaparib 0.013 | [2] 0.031 | encorafenib 0.027 | [3] 0.015

PUS3 (UniProt Q9BZE2)
inactive: saracatinib 0.054 | sotrastaurin -0.084 | alvocidib -0.023 | Tubastatin A 0.023 | [1] -0.097 | defactinib -0.074 | rucaparib -0.131 | [2] -0.036 | encorafenib 0.03 | [3] -0.002

PTAR1 (UniProt Q7Z6K3)
inactive: saracatinib 0.015 | sotrastaurin 0.071 | alvocidib -0.062 | Tubastatin A -0.011 | [1] 0.015 | defactinib -0.139 | rucaparib -0.117 | [2] -0.007 | encorafenib 0.01 | [3] 0.142

PTGES2 (UniProt Q9H7Z7)
inactive: saracatinib 0.061 | sotrastaurin 0.019 | alvocidib 0.072 | Tubastatin A -0.055 | [1] 0.015 | defactinib -0.023 | rucaparib -0.015 | [2] -0.037 | encorafenib -0.006 | [3] 0.01

PXMP2 (UniProt Q9NR77)
inactive: saracatinib 0.076 | sotrastaurin 0.03 | alvocidib -0.022 | Tubastatin A 0.068 | [1] -0.022 | defactinib 0.004 | rucaparib -0.014 | [2] -0.019 | encorafenib -0.009 | [3] -0.027

PSD4 (UniProt Q8NDX1)
inactive: saracatinib 0.005 | sotrastaurin -0.211 | alvocidib -0.169 | Tubastatin A 0.013 | [1] 0.018 | defactinib -0.413 | rucaparib 0.338 | [2] -0.025 | encorafenib 0.116 | [3] -0.092

Fetched one by one from the entries so far, two records:
PXMP2 (UniProt Q9NR77)
inactive: saracatinib 0.076 | sotrastaurin 0.03 | alvocidib -0.022 | Tubastatin A 0.068 | [1] -0.022 | defactinib 0.004 | rucaparib -0.014 | [2] -0.019 | encorafenib -0.009 | [3] -0.027

PSD4 (UniProt Q8NDX1)
inactive: saracatinib 0.005 | sotrastaurin -0.211 | alvocidib -0.169 | Tubastatin A 0.013 | [1] 0.018 | defactinib -0.413 | rucaparib 0.338 | [2] -0.025 | encorafenib 0.116 | [3] -0.092

Later entries:

PUS10 (UniProt Q3MIT2)
inactive: saracatinib 0.058 | sotrastaurin -0.137 | alvocidib -0.166 | Tubastatin A 0.013 | [1] -0.102 | defactinib -0.297 | rucaparib 0.066 | [2] -0.046 | encorafenib 0.027 | [3] -0.064

PSMA6 (UniProt P60900)
inactive: saracatinib -0.016 | sotrastaurin -0.025 | alvocidib 0.068 | Tubastatin A -0.012 | [1] 0.113 | defactinib 0.069 | rucaparib -0.013 | [2] -0.028 | encorafenib 0.022 | [3] 0.014

PSMF1 (UniProt Q92530)
inactive: saracatinib -0.013 | sotrastaurin 0.024 | alvocidib -0.016 | Tubastatin A -0.001 | [1] 0.029 | defactinib 0 | rucaparib -0.029 | [2] -0.044 | encorafenib -0.013 | [3] -0.003

PSTPIP2 (UniProt Q9H939)
inactive: saracatinib -0.051 | sotrastaurin -0.096 | alvocidib 0.019 | Tubastatin A 0.053 | [1] 0.049 | defactinib -0.103 | rucaparib 0.131 | [2] 0.038 | encorafenib 0.077 | [3] -0.02

PSMA7 (UniProt O14818)
inactive: saracatinib -0.02 | sotrastaurin 0.029 | alvocidib 0.012 | Tubastatin A -0.034 | [1] 0.02 | defactinib 0.03 | rucaparib 0.013 | [2] -0.01 | encorafenib 0.025 | [3] -0.012

PSMB2 (UniProt P49721)
inactive: saracatinib -0.006 | sotrastaurin -0.027 | alvocidib 0.046 | Tubastatin A -0.026 | [1] -0.011 | defactinib 0.09 | rucaparib 0.001 | [2] -0.007 | encorafenib 0.027 | [3] 0.007

PTGS1 isoform 6 (UniProt P23219)
inactive: saracatinib -0.057 | sotrastaurin 0.011 | alvocidib -0.035 | Tubastatin A 0.011 | [1] -0.049 | defactinib -0.033 | rucaparib -0.102 | [2] -0.06 | encorafenib 0.027 | [3] -0.057

PTPRC (UniProt P08575)
inactive: saracatinib 0.074 | sotrastaurin 0.007 | alvocidib -0.027 | Tubastatin A -0.039 | [1] 0.028 | defactinib -0.035 | rucaparib -0.031 | [2] 0.053 | encorafenib -0.001 | [3] 0.022
